{"source": "patent US20020002202A1", "about": "“Use of fumarate salt of L-carnitine or its alkanoyl derivatives in ischaemia” (priority 1998, published 2002)", "origin": "cited, not measured here", "conditions": "cited from earlier work", "note": "At least one structure is not confirmed: it was looked up by name or label, or the drawing left a doubt."}
{"smiles": "CC(=O)O[C@H](CC(=O)[O-])C[N+](C)(C)C", "note": "[acetyl L-carnitine]", "values": [{"measurement": "hygroscopicity", "value": "high hygroscopicity"}]}
{"smiles": "CCC(=O)O[C@H](CC(=O)[O-])C[N+](C)(C)C", "note": "[propionyl L-carnitine]", "values": [{"measurement": "hygroscopicity", "value": "high hygroscopicity"}]}
